Measured values as given in patent US20110223132A1, “ISOTHIAZOLOQUINOLONES AND RELATED COMPOUNDS AS ANTI-INFECTIVE AGENTS” (priority 2003, published 2011).
Some results were stated once for a whole list of compounds, not compound by compound.

Test system: at least one of the S. aureaus and E. coli
Experiment: Minimum inhibitory concentration (MIC) assay, result stated for at least one of the two strains
Format: cell-based
Details: against at least one of S. aureus and E. coli

CC(C)(C)c1ccc(-c2cc3c(cc2F)c(=O)c2c(=O)[nH]sc2n3C2CC2)cc1 [Compound 104, 7-(4-tert-Butyl-phenyl)-9-cyclopropyl-6-fluoro-9H-isothiazolo [5,4-b]quinoline-3,4-dione]
MIC against at least one of the S. aureaus and E. coli: ≤ 1 g/ml

Cc1ccc(C#Cc2cc3c(cc2F)c(=O)c2c(=O)[nH]sc2n3C2CC2)cc1 [Compound 161, 9-Cyclopropyl-6-fluoro-7-p-tolyl-ethynyl-9H-isothiazolo [5,4-b]quinoline-3,4-dione]
MIC against at least one of the S. aureaus and E. coli: ≤ 1 g/ml
